These are yes or no findings as the source states them, for the method shown. Binding seen in cells or lysates may run through a third protein.
Assays:
p50 (NF-κB1) (human) = p50 (NF-κB1) (human) (UniProt P19838); experiment: co-IP; HEK293T cells lysed in RIPA buffer with protease and phosphatase inhibitors and DNase I; lysates incubated with G-agarose beads 1.5 h at 4°C, 3 washes with ice-cold PBS, eluted in SDS loading buffer, Western blot; bait and precipitating antibody not stated
WT p65 (RelA) (human) = WT p65 (RelA) (human) (UniProt Q04206); experiment: as above

Protein sequences, listed by entry. Tags and fused reporters are not part of them. Lines headed by an entry give the natural chain unless they say otherwise; changes in a name come on top. Residues count along the entry.
UniProt P19838, residues 1-433: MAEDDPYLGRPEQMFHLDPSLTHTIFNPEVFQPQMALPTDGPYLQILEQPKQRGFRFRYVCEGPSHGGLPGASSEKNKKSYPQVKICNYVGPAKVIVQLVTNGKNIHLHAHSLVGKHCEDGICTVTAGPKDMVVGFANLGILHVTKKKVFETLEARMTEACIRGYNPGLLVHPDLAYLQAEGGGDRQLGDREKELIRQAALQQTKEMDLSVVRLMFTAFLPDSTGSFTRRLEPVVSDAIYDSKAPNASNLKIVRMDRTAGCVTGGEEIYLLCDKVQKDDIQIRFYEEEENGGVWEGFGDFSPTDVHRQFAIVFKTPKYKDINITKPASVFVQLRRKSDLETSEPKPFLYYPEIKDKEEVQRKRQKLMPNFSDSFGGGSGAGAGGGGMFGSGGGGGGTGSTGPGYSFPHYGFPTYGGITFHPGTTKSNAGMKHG
UniProt Q04206: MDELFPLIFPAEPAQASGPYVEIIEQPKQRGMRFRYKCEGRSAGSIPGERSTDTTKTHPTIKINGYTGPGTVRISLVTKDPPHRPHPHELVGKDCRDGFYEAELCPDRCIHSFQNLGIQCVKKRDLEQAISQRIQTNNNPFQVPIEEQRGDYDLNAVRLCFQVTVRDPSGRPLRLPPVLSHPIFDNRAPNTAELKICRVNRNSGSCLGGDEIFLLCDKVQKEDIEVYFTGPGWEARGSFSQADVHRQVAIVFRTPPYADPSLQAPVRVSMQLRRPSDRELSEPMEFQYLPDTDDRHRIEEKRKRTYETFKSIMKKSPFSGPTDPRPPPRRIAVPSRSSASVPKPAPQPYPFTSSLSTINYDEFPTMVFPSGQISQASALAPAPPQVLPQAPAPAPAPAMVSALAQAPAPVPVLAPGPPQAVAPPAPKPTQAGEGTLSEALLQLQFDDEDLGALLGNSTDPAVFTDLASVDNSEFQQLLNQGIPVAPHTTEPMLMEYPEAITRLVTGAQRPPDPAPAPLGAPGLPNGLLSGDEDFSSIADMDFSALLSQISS
p65^R198* mutant (GFP-p65_R198*): residues 1-197 of Q04206

binding (p50 (NF-κB1) (human)): no binding
binding (WT p65 (RelA) (human)): no binding
Substance: p65^R198* mutant (GFP-p65_R198*) (from UniProt Q04206-1 1-197) (domain or fragment)
